Experiment [1] has as its target Flag-SNAI1 (pcDNA3.1-3×Flag-SNAI1) (UniProt O95863). As to the kind of experiment: co-IP; overexpressed HA-PPIL2 and Flag-SNAI1; ZR-75-30 cells by the text, T47D cells by the legend (Fig. 3a, b).
The target in experiment [2] is GFP-SNAI1-NT (aa:1–151) (UniProt O95863). As to the kind of experiment: co-IP; GFP-tagged truncations of PPIL2 or of SNAI1 expressed in T47D cells (Fig. 3e, f).

Sequences of proteins named here, by UniProt entry; tags and fusion partners are left off. A change or cut given only in a name is not applied to a line headed by its entry. Residues count along the entry.
UniProt O95863: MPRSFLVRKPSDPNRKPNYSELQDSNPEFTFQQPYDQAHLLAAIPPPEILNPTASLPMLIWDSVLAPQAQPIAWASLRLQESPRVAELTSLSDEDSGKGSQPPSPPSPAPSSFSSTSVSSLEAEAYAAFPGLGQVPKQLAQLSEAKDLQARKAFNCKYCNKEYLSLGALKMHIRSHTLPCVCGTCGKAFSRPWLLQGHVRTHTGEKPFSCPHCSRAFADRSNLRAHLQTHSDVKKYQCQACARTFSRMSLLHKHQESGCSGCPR
GFP-SNAI1-NT: residues 1-151 of O95863

Results are given in words; binding and its absence hold for the method and conditions named. Binding seen in cells or lysates may run through a third protein. Binding can be weak; no strength is given.

For the substance “HA-PPIL2 (peptidylprolyl isomerase (cyclophilin)-like 2) (from UniProt Q13356-2) (enzyme)”, the binding result in experiment [1] and in experiment [2] was “binds” in each case.

Source of the values: paper PMC5833831.
